Here are results for two molecules from patent US11672864B2, “Nanostructured gels capable of controlled release of encapsulated agents” (The Brigham and Women's Hospital, Inc., priority 2010, dated 2023).

Each structure is given as a SMILES string. Where “and” joins values, the source holds several entries; their conditions need not be identical. Equal entries are not always repeated.

The data set in a line: Loading efficiency in self-assembled SMS gels.

With `CC[C@@]1(O)C(=O)OCc2c1cc1n(c2=O)Cc2cc3ccccc3nc2-1` [Camptothecin], the Loading efficiency runs as follows: (SMS 4 % (wt/v) gel in DMSO, camptothecin starting 4 mg) 32.28 % (wt/wt); (SMS 4 % (wt/v) gel in DMSO, camptothecin starting 4 mg, listed as camptothecin (CPT)) ~30 % (wt/wt); (SMS 6 % (wt/v) gel in DMSO, camptothecin starting 4 mg) 30.02 % (wt/wt); (SMS 6 % (wt/v) gel in DMSO, camptothecin starting 4 mg, listed as camptothecin (CPT)) ~30 % (wt/wt); (SMS 8 % (wt/v) gel in DMSO, camptothecin starting 4 mg) 18.25 % (wt/wt); (SMS 12 % (wt/v) gel in DMSO, camptothecin starting 4 mg) 12.67 % (wt/wt). The Loading efficiency reads like this: (SMS gels, SMS concentration not stated) 30 % (wt/wt); (camptothecin and AGO14699 co-loaded in sorbitan monostearate DMSO gels, listed as CPT) ~30 % (wt/wt); (camptothecin and AGO14699 co-loaded in sorbitan monostearate DMSO gels, listed as Camptothecin (CPT)) 30.02 % (wt/wt).

Turning to `CNCc1ccc(-c2[nH]c3cc(F)cc4c3c2CCNC4=O)cc1` [AGO14699], the Loading efficiency (camptothecin and AGO14699 co-loaded in sorbitan monostearate DMSO gels) was ~15 % (wt/wt) and 15.10 % (wt/wt).
